Some ranges recur; such a range may be that of the whole group of compounds.
System: MDA-MB-468 (TNBC) cells
Assay: Cell surface HLA-bound peptidyl-citrullinome by mass spectrometry, MDA-MB-468
Type: cell-based, human
Conditions: mild acid elution, LC-MS/MS, FDR=0.01; class by peptide length

Substance: SLTGLLLLQAVSWASGAR*P (SLTGLLLLQAVSWASGARP; citrulline at R18; MOD_RES (18)..(18) Citrullinated Arginine) [SEQ ID NO: 52, GBA peptide, R18(Cit.)]
- Cell surface MHC binding citrullinated peptide identified in MDA-MB-468 (TNBC): MHC-II (from 12 to 34 as MHC-IU binding peptides)

— US20240201191A1, “CITRULLINATED PROTEINS AS BIOMARKERS AND THERAPY TARGETS FOR CANCER” (BOARD OF REGENTS, THE UNIVERSITY OF TEXAS SYSTEM, priority 2022, published 2024)
